The match of structure and compound is tentative.
Biological target: mTORC1 (Homo sapiens, UniProt P42345+P62942)
Test: Inhibition assay for mTORC1: phosphorylation of pS6K at Thr389, AlphaLISA SureFire in PC3 cells
Type: cell-based
Conditions: treated 24 hours, Rapamycin analogs substituted at C40

`COC1CC2CCC(C)C(O)(O2)C(=O)C(=O)N2CCCCC2C(=O)OC(C(C)CC2CCC(OC(=O)NCCCc3ccccc3)C(OC)C2)CC(=O)C(C)C=C(C)C(O)C(OC)C(=O)C(C)CC(C)C=CC=CC=C1C` (stereo not shown) was tested, and the “pIC50 mTORC1” value was “A (PIC50 for mTORC1 of >9.5 as A)”.

From US12565505B2, “mTORC modulators and uses thereof” (Aeovian Pharmaceuticals, Inc., priority 2019, dated 2026)
